The test deals with tripartite motif-containing protein 21 (TRIM21), expressed from adenovirus (Ad-TRIM21) (UniProt P19474). The experiment in a line: affinity purification with mass spectrometry; TRIM21 co-IP followed by LC-MS/MS from HepG2 cells infected with Ad-TRIM21 or Ad-GFP (empty vector).

The chains behind the UniProt entries cited, without tags or fusion partners.
UniProt P19474: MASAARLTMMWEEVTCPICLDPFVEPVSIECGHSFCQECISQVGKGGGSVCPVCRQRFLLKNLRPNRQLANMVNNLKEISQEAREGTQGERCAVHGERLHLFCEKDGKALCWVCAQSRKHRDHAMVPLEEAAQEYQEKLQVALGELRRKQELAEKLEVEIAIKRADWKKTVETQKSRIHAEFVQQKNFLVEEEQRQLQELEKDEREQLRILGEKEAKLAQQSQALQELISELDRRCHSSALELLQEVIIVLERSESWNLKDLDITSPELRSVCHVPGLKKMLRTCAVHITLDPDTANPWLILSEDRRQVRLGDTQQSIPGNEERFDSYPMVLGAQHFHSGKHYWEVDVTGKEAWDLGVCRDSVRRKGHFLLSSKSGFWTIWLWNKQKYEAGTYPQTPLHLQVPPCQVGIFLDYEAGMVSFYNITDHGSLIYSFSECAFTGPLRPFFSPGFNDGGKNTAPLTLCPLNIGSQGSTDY
UniProt P35558: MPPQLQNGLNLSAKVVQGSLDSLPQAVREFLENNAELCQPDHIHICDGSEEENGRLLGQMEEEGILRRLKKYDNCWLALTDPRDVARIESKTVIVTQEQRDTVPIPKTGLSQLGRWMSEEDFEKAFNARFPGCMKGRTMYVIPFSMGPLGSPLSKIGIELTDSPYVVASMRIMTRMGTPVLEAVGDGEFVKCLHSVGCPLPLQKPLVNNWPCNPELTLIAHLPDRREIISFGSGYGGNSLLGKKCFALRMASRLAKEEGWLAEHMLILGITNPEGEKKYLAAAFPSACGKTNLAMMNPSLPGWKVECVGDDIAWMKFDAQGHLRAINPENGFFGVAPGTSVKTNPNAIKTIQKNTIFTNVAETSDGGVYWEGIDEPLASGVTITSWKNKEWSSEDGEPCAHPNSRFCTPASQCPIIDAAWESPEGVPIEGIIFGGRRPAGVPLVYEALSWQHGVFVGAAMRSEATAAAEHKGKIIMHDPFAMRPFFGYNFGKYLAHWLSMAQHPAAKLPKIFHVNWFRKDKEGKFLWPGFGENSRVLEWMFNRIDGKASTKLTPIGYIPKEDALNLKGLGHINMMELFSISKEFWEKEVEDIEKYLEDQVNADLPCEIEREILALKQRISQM

These are yes or no findings as the source states them, for the method shown. Binding seen in cells or lysates may run through a third protein. Here binding means that the protein was enriched with, or labelled near, the bait; the list need not be complete.

Turning to “phosphoenolpyruvate carboxykinase-1 (PEPCK1), endogenous in HepG2 (from UniProt P35558 1-622)”, the binding entry is listed as “binds”.

The values are drawn from PMC10229743.
